Results are given in words; binding and its absence hold for the method and conditions named. In cells and extracts the contact can be indirect. Where a sequence is shown, tags or fusion partners need not be part of it.
Target: T1, GFP-Piwi (D. melanogaster) (UniProt Q9VKM1)
T1 sequence: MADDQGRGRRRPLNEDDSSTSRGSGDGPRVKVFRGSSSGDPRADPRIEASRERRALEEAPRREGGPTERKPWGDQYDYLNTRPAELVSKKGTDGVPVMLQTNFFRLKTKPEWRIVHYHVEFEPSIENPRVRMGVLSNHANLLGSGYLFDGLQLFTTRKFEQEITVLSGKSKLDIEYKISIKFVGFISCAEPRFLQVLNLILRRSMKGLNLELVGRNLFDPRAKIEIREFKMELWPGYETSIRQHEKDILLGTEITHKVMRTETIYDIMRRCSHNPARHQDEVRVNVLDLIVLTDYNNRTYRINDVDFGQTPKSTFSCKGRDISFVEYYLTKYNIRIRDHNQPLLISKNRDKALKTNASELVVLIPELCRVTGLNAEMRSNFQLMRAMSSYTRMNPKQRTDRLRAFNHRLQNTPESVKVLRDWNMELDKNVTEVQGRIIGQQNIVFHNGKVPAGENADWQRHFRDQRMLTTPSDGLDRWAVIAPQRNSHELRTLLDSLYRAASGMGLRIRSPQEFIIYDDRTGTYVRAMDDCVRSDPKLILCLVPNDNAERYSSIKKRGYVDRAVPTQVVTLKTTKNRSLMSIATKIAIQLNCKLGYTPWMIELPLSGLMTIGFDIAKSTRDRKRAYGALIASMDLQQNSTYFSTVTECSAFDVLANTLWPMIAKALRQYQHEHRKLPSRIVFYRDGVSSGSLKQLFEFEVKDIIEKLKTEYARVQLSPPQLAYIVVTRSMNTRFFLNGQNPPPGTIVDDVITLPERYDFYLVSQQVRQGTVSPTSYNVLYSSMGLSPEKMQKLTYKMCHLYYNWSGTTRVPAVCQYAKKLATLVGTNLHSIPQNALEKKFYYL
Experiment: co-IP

binding: no binding
B1: D1 (protein, UniProt P22058 1-355)
chain: MEEVAVKKRGRPSKASVGGKSSTAAVAAISPGIKKRGRPAKNKGSSGGGGQRGRPPKASKIQNDEDPEDEGEEDGDGDGSGAELANNSSPSPTKGRGRPKSSGGAGSGSGDSVKTPGSAKKRKAGRPKKHQPSDSENEDDQDEDDDGNSSIEERRPVGRPSAGSVNLNISRTGRGLGRPKKRAVESNGDGEPQVPKKRGRPPQNKSGSGGSTGYVPTGRPRGRPKANAAPVEKHEDNDDDQDDENSGEEEHSSPEKTVVAPKKRGRPSLAAGKVSKEETTKPRSRPAKNIDDDADDADSADQGQHNSKKESNDEDRAVDGTPTKGDGLKWNSDGENDANDGYVSDNYNDSESVAA

From publication doi:10.1101/2023.07.11.548599
